{"source": "patent US20140113912A1", "about": "“TREATMENT AND MANAGEMENT OF CNS DISORDERS” (priority 2011, published 2014)", "system": "glutamate", "assay": "Metabolomic analysis of plasma samples: glutamate level", "assay_type": "in vivo, human", "text": "Blood samples were taken at 4 days and 6 weeks following treatment. Plasma samples were isolated from whole blood and used for global metabolomic profiling.\nAt the time of analysis, samples were thawed and extracts prepared according to a standard protocol, which is designed to remove protein, dislodge small molecules bound to protein or physically trapped in the precipitated protein matrix, and recover a wide range of chemically diverse metabolites. A separate aliquot of each experimental plasma sample was taken then pooled for the creation of “Client Matrix” (CMTRX) samples. These CMTRX samples were injected throughout the platform run and served as technical replicates, allowing variability in the quantitation of all consistently detected biochemicals to be determined and overall process variability and platform performance to be monitored. Extracts of all experimental and CMTRX samples were split for analysis on the GC/MS and LC/MS/MS platforms. […]\nA number of internal standards were added to each experimental and process standard sample just prior to injection into the mass spectrometers. A measure of the platform variability was determined by calculating the median relative standard deviation (RSD) for these internal standards. […]\nBiochemical data were analyzed by ANOVA contrasts and a Two-way ANOVA. […]", "note": "At least one structure is not confirmed: it was looked up by name or label, or the drawing left a doubt."}
{"smiles": "Cc1cc2c(s1)Nc1ccccc1N=C2N1CCN(C)CC1", "note": "[Olanzapine, olanzapine]", "values": [{"measurement": "overall glutamate level compared with the placebo group", "setting": "days 4 and weeks 6, treatment responders, FIG. 2", "value": "No such effect"}, {"measurement": "relation between levels of glutamate and change in PANSS negative subscore", "setting": "week 6, scatterplot FIG. 4", "value": "Neither olanzapine treated patients nor placebo treated patients showed such a pattern"}]}
